Data: patent US20040259781A1 (Novartis, published 2004)
No constants are given. Whether binding was seen depends on the method and setting. For part of these data: Binding calls can cover weak binding; strength is not graded here. Blank lines part the entries; values can stand above or below the molecule they belong to.

By UniProt entry, the sequences of proteins in these tests, tags left out. Where a name states a change or a piece, a line headed by the entry shows the natural chain unless it says otherwise. Residues count along the entry.
UniProt P10039: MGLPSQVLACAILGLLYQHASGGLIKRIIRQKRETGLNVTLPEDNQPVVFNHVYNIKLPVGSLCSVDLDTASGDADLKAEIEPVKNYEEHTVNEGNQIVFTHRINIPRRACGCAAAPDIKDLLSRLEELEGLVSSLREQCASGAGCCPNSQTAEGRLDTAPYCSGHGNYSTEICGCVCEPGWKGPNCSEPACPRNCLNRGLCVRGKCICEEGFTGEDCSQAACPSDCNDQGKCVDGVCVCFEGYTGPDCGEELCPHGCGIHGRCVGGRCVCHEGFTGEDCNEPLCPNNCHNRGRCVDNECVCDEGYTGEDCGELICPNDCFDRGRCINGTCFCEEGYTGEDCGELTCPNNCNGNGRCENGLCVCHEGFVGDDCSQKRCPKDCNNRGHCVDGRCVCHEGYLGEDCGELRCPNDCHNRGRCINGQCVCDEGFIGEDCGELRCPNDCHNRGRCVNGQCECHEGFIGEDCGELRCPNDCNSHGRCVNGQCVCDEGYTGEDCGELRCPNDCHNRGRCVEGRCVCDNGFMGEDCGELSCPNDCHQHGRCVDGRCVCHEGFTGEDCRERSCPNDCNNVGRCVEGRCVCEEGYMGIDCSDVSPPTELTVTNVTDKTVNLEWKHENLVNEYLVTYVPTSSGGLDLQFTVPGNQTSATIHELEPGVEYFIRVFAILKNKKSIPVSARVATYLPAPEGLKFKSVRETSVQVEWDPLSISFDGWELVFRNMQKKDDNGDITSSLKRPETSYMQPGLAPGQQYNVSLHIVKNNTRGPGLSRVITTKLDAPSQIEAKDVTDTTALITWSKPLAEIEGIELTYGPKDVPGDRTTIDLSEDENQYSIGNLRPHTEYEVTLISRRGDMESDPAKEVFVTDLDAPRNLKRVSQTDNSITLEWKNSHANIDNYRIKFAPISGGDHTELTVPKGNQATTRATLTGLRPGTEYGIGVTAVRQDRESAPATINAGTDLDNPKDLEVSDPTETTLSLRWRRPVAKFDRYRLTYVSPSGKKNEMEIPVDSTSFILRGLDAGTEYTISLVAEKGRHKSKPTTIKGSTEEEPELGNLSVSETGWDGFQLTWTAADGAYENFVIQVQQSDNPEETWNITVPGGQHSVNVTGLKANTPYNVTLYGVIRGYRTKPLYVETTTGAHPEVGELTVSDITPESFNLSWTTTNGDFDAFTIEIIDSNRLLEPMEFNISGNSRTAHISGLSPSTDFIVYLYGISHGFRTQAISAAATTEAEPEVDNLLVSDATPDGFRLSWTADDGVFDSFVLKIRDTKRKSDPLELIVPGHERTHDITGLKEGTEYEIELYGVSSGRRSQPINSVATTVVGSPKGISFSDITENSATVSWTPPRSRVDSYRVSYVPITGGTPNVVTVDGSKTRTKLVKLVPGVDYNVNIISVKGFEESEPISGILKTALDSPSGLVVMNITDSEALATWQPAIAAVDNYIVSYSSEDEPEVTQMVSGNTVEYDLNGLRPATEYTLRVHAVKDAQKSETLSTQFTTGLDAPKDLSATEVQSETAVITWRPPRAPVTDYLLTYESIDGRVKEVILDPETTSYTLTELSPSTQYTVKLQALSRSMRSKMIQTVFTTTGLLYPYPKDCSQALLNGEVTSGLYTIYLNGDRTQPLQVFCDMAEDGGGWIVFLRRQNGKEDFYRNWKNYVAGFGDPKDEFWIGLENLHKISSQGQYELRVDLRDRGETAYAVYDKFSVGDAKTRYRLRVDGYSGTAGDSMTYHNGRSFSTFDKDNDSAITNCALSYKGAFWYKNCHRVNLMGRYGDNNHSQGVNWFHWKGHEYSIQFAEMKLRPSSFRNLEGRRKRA
UniProt Q28377, residues 32-2477: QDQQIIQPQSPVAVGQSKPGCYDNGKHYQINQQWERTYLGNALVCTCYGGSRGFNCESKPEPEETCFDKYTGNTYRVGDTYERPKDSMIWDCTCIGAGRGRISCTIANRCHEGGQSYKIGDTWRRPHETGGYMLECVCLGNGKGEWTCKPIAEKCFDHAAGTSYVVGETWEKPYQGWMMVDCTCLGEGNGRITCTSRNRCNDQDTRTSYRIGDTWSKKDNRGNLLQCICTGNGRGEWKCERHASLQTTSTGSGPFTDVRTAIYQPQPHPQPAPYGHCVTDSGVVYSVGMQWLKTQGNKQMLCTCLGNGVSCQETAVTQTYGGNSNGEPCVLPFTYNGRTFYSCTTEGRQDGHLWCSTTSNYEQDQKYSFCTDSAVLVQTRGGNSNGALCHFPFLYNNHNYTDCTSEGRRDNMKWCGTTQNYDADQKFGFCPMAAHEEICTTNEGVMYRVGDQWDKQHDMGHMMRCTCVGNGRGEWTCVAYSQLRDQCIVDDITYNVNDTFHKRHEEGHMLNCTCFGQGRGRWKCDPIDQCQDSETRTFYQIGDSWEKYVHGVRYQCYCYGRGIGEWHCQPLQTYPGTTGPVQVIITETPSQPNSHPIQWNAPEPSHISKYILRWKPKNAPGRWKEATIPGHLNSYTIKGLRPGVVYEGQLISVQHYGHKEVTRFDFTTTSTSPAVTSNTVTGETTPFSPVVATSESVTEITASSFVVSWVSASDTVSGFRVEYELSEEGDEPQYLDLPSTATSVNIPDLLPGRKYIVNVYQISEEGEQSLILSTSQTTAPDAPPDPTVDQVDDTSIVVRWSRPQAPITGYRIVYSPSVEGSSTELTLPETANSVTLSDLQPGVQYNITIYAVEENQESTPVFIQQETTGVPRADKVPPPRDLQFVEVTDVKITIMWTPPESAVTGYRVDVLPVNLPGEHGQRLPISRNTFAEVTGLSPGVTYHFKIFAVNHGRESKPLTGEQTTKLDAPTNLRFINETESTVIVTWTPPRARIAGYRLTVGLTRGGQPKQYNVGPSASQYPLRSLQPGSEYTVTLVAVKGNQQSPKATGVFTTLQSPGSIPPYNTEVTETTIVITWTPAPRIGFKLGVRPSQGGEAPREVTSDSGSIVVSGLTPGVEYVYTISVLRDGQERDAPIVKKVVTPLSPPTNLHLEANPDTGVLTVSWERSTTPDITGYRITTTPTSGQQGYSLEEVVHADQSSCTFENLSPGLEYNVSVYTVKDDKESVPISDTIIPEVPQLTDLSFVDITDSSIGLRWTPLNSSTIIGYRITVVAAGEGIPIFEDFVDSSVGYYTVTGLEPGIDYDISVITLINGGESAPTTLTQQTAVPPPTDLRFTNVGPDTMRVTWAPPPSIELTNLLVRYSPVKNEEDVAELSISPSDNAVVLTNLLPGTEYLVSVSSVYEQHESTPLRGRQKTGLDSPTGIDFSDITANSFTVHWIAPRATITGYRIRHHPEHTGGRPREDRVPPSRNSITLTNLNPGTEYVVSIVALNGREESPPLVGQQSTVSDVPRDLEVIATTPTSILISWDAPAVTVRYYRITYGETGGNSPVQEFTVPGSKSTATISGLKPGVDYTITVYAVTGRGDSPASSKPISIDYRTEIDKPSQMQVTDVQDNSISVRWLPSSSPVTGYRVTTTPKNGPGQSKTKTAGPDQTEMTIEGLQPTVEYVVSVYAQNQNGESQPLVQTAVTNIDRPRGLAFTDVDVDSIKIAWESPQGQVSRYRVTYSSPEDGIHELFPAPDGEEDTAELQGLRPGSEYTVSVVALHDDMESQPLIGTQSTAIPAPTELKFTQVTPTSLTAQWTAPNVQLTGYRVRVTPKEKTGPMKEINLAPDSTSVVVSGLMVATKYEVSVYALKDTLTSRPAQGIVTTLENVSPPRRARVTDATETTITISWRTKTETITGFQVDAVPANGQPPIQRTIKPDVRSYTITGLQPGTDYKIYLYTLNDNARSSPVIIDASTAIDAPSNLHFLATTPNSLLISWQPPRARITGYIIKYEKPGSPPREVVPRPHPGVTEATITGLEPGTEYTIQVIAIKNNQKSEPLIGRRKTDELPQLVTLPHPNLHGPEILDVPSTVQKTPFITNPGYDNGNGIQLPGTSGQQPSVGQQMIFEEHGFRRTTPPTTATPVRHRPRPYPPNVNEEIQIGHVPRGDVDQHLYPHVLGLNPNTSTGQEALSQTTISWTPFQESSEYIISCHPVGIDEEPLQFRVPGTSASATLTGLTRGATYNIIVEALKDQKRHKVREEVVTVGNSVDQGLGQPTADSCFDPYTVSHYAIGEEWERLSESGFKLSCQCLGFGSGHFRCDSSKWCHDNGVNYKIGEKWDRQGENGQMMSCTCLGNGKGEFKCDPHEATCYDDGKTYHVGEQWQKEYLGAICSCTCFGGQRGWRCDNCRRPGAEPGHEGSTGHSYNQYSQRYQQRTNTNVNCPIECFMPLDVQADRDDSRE

How the values were obtained:
[1] = target: Full length chicken tenascin-C TN260 (chicken) (UniProt P10039); assay: ELISA, tenascin-C immobilised
[2] = target: Fibronectin (purified from horse serum) (horse) (UniProt Q28377); assay: ELISA with fibronectin and recombinant fragments
[3] = target: Full length chicken tenascin-C TN260 (chicken) (UniProt P10039); assay: cells plated on substratum

- binding [1]: binds
Molecule: Fibronectin (purified from horse serum) (from UniProt Q28377 32-2477)

- binding [2]: binds
Molecule: Full length chicken tenascin-C TN260 (from UniProt P10039)

- binding [3]: no binding
B1: Syndecan-1 overexpressed on T98G glioblastoma cells (receptor, mouse, UniProt P18828 23-311, looked up)
chain: QIVAVNVPPEDQDGSGDDSDNFSGSGTGALPDTLSRQTPSTWKDVWLLTATPTAPEPTSSNTETAFTSVLPAGEKPEEGEPVLHVEAEPGFTARDKEKEVTTRPRETVQLPITQRASTVRVTTAQAAVTSHPHGGMQPGLHETSAPTAPGQPDHQPPRVEGGGTSVIKEVVEDGTANQLPAGEGSGEQDFTFETSGENTAVAAVEPGLRNQPPVDEGATGASQSLLDRKEVLGGVIAGGLVGLIFAVCLVAFMLYRMKKKDEGSYSLEEPKQANGGAYQKPTKQEEFYA
